Laboratory results taken from PubChem BioAssay AID1439 (NMMLSC, 2008).
Out of some 220,000 compounds screened, about 770 (0.35%) were called active. This list was built around the results that the source calls inconclusive (neither active nor inactive); the mix of calls is not that of the screen. Cut-off read from the data, not from the text of the source: active = binding response below about 49% or above about 150%; inconclusive = no clear call, values can overlap the other calls; inactive = in between.

Chains of the proteins cited; added tags and fusions are not shown.
UniProt P09471, whole entry, looked up: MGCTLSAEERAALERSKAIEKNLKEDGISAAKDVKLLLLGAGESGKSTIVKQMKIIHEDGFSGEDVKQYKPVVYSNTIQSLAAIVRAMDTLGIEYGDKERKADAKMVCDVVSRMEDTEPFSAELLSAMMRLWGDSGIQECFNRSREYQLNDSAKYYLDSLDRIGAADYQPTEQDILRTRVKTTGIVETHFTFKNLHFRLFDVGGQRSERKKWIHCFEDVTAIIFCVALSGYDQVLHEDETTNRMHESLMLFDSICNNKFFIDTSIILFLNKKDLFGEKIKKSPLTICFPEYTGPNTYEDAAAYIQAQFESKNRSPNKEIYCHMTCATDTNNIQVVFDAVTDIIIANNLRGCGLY

biological target: Guanine nucleotide-binding protein G(o) subunit alpha (Homo sapiens) (UniProt P09471); assay: RGS7-Galphao binding modulators, primary screen, biochemical, multiplexed bead flow cytometry (AID 1439); conditions: at 10 µM, actives lie on both sides;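 note: fluorescent Galphao held in activated GDP-AlF4 state binding bead-coupled RGS7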

Row | Compound | binding response (% of control)
1 | O=C(Cn1c(CO)nc2ccccc21)NCCc1ccc(F)cc1 | inconclusive: 102%
2 | Cc1ccc2nc(-c3ccccn3)cc(C(=O)NC(C)C(C)(C)C)c2c1 (configuration not stated) | inconclusive: 93.4%
3 | O=C(/C=C/c1cccs1)N1CCC2(CC1)Oc1ccc(F)cc1C(=O)C21CC(c2ccccc2)=NO1 (configuration not stated) | inconclusive: 85.9%
4 | CCCN1C(=S)SC(C)(C)C1/[N+]([O-])=C/c1ccc(S(=O)(=O)NC)cc1 (configuration not stated) | inconclusive: -435%
5 | NNC(=O)c1nc(Cl)c(Cl)c(N)c1Cl | inconclusive: 78.2%
6 | Cn1nc(-c2ccccc2)cc1NC(=O)CCCC(=O)O | inconclusive: 62.8%
7 | Cc1ccnc(NC(=O)COC(=O)C23CC4CC(CC(C4)C2)C3)n1 | inconclusive: 111%
8 | O=C(NC(=S)Nc1ccc(N2CCCCC2)cc1)c1ccc2c(c1)OCCO2 | inactive: 107%
9 | O=c1[nH]c(=S)n(C2CCCCC2)c(O)c1C=NCCN1CCOCC1 | inconclusive: 142%
10 | CC(=O)NCCCc1nc2ccccc2n1Cc1cc(C)ccc1C | inconclusive: 87.5%
11 | Cc1cc(C(=O)COC(=O)c2ccc(N)c([N+](=O)[O-])c2)c(C)n1Cc1ccc2c(c1)OCO2 | inconclusive: 110%
12 | Cc1ccc([N+](=O)[O-])c2c1C(N1CCCCC1)C(C)(C)O2 (configuration not stated) | inconclusive: 93.4%
13 | CSc1sc(C(=O)N(C)C)cc1S(=O)(=O)C(C)C | inconclusive: 110%
14 | Cc1ccccc1SCCNC(=O)c1ccccc1Br | inactive: 93.4%
15 | CCOC(=O)N1CCN(C(=O)Cn2nc(-c3ccc(Cl)cc3)ccc2=O)CC1 | inactive: 98.2%
16 | c1ccc(Cn2cc(CN3CCCO3)c(-c3ccc4c(c3)OCO4)n2)cc1 | inactive: 96%
17 | COCCn1c(Cc2ccccc2)nnc1SCC(=O)N(C)C | inactive: 102%
18 | CNc1ncc(C(=O)c2ccc(-c3ccccc3)cc2)s1 | inconclusive: 123%
19 | CN(C)c1ccc(C(=O)N/N=C/c2cc(Br)cc(Br)c2O)cc1 | inconclusive: 94%
20 | Cc1ccc(S(=O)(=O)NCc2ccc(C(=O)NCCCN3CCC(Cc4ccccc4)CC3)cc2)cc1 | inconclusive: 92.5%
21 | Cc1ccc(N2C(=O)CC(NNC(=O)Cc3ccc(F)cc3)C2=O)cc1Cl (configuration not stated) | inconclusive: 81.6%
22 | O=C(Nc1ccccc1)c1cc2ccc3ccccc3c2s1 | inconclusive: 88.7%
23 | CC1=C(C(N)=O)C(c2cccs2)n2nc(-c3cccc(C)c3)nc2N1 (configuration not stated) | active: 30.9%

Row | Compound | binding response (% of control)
24 | Oc1cccc(/C=N/N(Cc2ccccc2)c2ccccc2)c1 | inconclusive: 98.4%
25 | Cc1cc(C)c2nc(SCC(=O)NCC3CCCO3)c(C#N)cc2c1 (configuration not stated) | inactive: 98.2%
26 | CCCN1CCC(=O)N(CCSc2ccc(NC(C)=O)cc2)CC1 | inconclusive: 90.7%
27 | O=C(N/N=C/c1cc(O)ccc1[N+](=O)[O-])c1ccc2c(c1)OCCO2 | inconclusive: 87.4%
28 | O=c1[nH]cnc(O)c1C(c1cccc([N+](=O)[O-])c1)c1c(O)nc[nH]c1=O | inconclusive: 93.4%
29 | O=C(O)c1ccc(S(=O)(=O)N(Cc2cccs2)CC2CCCO2)cc1 (configuration not stated) | inconclusive: 113%
30 | COc1cc(CN2CCCC(CO)(Cc3ccccc3C)C2)cc2c1OCO2 (configuration not stated) | inactive: 102%
31 | c1ccc2c(c1)Nc1cc3ccccc3cc1S2 | inconclusive: 111%
32 | Cc1ccc(NC(=S)NCCc2ccccc2)nc1 | inactive: 95.8%
33 | Cc1cc(-n2cnc(-c3cn[nH]c3C)n2)no1 | inconclusive: 92.2%
34 | C/C(=N\NC(=O)Cn1cc([N+](=O)[O-])cn1)c1ccc(O)cc1 | inconclusive: 118%
35 | O=C(Nc1ccc(Cl)cc1)N1CCOC12CCCCC2 | inconclusive: 106%
36 | Cc1ccc(NC(=O)CSc2nnc3ccccn23)cc1 | inconclusive: 95.6%
37 | O=c1cc(-c2cccc(Br)c2)oc2cccc(O)c12 | inconclusive: 104%
38 | CN(C)S(=O)(=O)c1ccc(Cl)c(NC(=O)COC(=O)/C=C/c2ccco2)c1 | inconclusive: 93.8%
39 | CCCC1=C(C(=O)OCC)C(c2cccs2)n2ncnc2N1 (configuration not stated) | inconclusive: 95%
40 | Cc1ccc(C(=O)COC(=O)CCCC(=O)Nc2cc(C(F)(F)F)ccc2Cl)cc1C | active: 12%
41 | COc1cccc(-c2nc(-c3cccs3)no2)c1 | inconclusive: 101%
42 | O=C(N/N=C/c1ccc(O)c(O)c1)c1cccc(S(=O)(=O)N2CCCCC2)c1 | inconclusive: 85.8%
43 | C=CCn1cc(C(=O)OCC)c(=O)c2cc(F)c(F)cc21 | inconclusive: 115%
44 | CC(=O)COC(=O)C1CCN(S(=O)(=O)c2cc([N+](=O)[O-])ccc2Cl)CC1 | inconclusive: 83%
45 | Cc1cc(NC(=O)CSc2nccn2C)n(-c2ccccc2)n1 | inconclusive: 40.2%
46 | O=C(NC(=S)Nc1cccc(F)c1)c1cccc([N+](=O)[O-])c1 | inconclusive: 135%

Quoted from above, compounds 26–28
Row | Compound | binding response (% of control)
26 | CCCN1CCC(=O)N(CCSc2ccc(NC(C)=O)cc2)CC1 | inconclusive: 90.7%
27 | O=C(N/N=C/c1cc(O)ccc1[N+](=O)[O-])c1ccc2c(c1)OCCO2 | inconclusive: 87.4%
28 | O=c1[nH]cnc(O)c1C(c1cccc([N+](=O)[O-])c1)c1c(O)nc[nH]c1=O | inconclusive: 93.4%

Remaining list, next part.

Row | Compound | binding response (% of control)
47 | Cc1cc(C)nc(Nc2nc3ccccc3o2)n1 | inconclusive: 156%
48 | Cc1ccc(C(=O)O/N=C2/CC3CCC2(C)[C@@]3(C)CBr)cc1 (some centres not stated) | inconclusive: 100%
49 | COc1ccc(/C(C)=N\NC(=O)C(c2ccncc2)N2CCOCC2)cc1 (configuration not stated) | inconclusive: 74.1%
50 | CC1=C(C)Cc2c(OC(=O)c3ccccc3)ccc(OC(=O)c3ccccc3)c2C1 | inconclusive: 104%
51 | CC1(C)CC2(CCO1)OC(=O)CC2C(=O)Nc1ccc(Cl)cc1[N+](=O)[O-] (configuration not stated) | inconclusive: 95.5%
52 | CCOc1ncccc1C(=O)OCC(=O)c1ccc(C)c(C)c1 | inactive: 90%
53 | CC(=O)NS(=O)(=O)c1ccc(NC(=O)/C=C/c2ccccc2)cc1 | inconclusive: 103%
54 | CCC1=C(OC(=O)N(CC)CC)N2C(=O)OC(=NCC(=O)OC)[C@]2(Cc2ccccc2)[C@H]2C1=CC[C@H]1C(=O)NC(=O)[C@H]12 | inconclusive: 103%
55 | CN1CCC(=NNC(=O)c2cc(-c3ccc(Cl)cc3)n[nH]2)CC1 | inconclusive: 101%
56 | CC1CN(C(=O)c2cccc(S(=O)(=O)Nc3cc(Cl)ccc3Cl)c2)CC(C)O1 (configuration not stated) | inconclusive: 93%
57 | CCOC(=O)NC(=O)/C(C#N)=C/c1ccc(N(C)C)cc1 | inconclusive: 174%
58 | CC(=O)Nc1ccc(CC#N)cc1 | inconclusive: 114%
59 | CC(C)Oc1ccc(C(=O)O)cc1 | inconclusive: 73.5%
60 | Cc1cccc(CSc2nnc(-c3ccco3)o2)c1 | inconclusive: 80.4%
61 | Cn1cccc1/C=N/NC(=O)CNc1cccc2ccccc12 | inconclusive: 170%
62 | COc1ccc(NC(=O)C2CC(=O)N/C(=N/NC(=O)c3ccc(Cl)cc3)S2)cc1 (configuration not stated) | inconclusive: 94.2%
63 | COC(=O)CC/C(=N/Nc1ccc(Cl)c(Cl)c1)C(=O)OC | inconclusive: 106%
64 | NS(=O)(=O)c1ccc(CNC(=O)c2ccc(S(=O)(=O)C(F)F)cc2)cc1 | inconclusive: 99.2%
65 | CSCC[C@H](NC(=O)OC(C)(C)C)C(=O)NCC1CCC(C(=O)O)CC1 (some centres not stated) | inconclusive: 83.6%
66 | COC(=O)N/N=C/c1ccc(Oc2ccccc2)cc1 | inconclusive: 96.3%
67 | c1ccc(Cc2ccc(OCCCNC3CCCC3)cc2)cc1 | inconclusive: 87%
68 | COc1ccccc1N1CCN(C(=O)CSc2nnc3c4ccccc4nc(Cc4ccccc4)n23)CC1 | inactive: 96.8%
69 | CCCC(=O)Nc1ccc(C(=O)NNC(=S)NC(=O)c2ccc(Br)o2)cc1 | inconclusive: 114%

Filtered by structure: the compounds so far containing an NH in an aromatic ring (four)
Row | Compound | binding response (% of control)
9 | O=c1[nH]c(=S)n(C2CCCCC2)c(O)c1C=NCCN1CCOCC1 | inconclusive: 142%
28 | O=c1[nH]cnc(O)c1C(c1cccc([N+](=O)[O-])c1)c1c(O)nc[nH]c1=O | inconclusive: 93.4%
33 | Cc1cc(-n2cnc(-c3cn[nH]c3C)n2)no1 | inconclusive: 92.2%
55 | CN1CCC(=NNC(=O)c2cc(-c3ccc(Cl)cc3)n[nH]2)CC1 | inconclusive: 101%

Remaining list, next part.

Row | Compound | binding response (% of control)
70 | Cc1nc2sccc2c(=O)n1N | inactive: 100%
71 | Cc1ccccc1NC(=S)N(Cc1cccnc1)Cc1ccccc1Cl | inconclusive: 89.1%
72 | CC(C)(C)OC(=O)NCCCCCC(=O)N/N=C/c1coc2ccccc2c1=O | inconclusive: 109%
73 | CC1CCCC(CC(=O)O)(CC(=O)O)C1 (configuration not stated) | inconclusive: -65%
74 | Cc1nc(-n2nnc(CO)c2CO)nc2c1CCC2 | inconclusive: 99.6%
75 | NS(=O)(=O)c1ccc(NC(=O)COC(=O)c2ccco2)cc1 | inconclusive: 95.1%
76 | CCN1/C(=C/c2ccc3cc(C)ccc3[n+]2C)Sc2ccc3sccc3c21 | inactive: 102%
77 | Cc1ccccc1NS(=O)(=O)c1ccc(C)c(NS(C)(=O)=O)c1C | inactive: 97.8%
78 | CN(C)C(=O)c1sccc1Oc1ccc(F)cc1[N+](=O)[O-] | inactive: 100%
79 | O=C(COc1ccc(-n2ccnc2)cc1)Nc1cccc(F)c1 | inconclusive: 106%
80 | CC(C)CC(=O)NC(=S)Nc1ccc(N2CCN(C(=O)c3cccs3)CC2)cc1 | inconclusive: 117%
81 | COCCN=C1NC(=O)C(CC(=O)Nc2cccc(Cl)c2C)S1 (configuration not stated) | inactive: 99.9%
82 | O=C(/C=C/c1ccc([N+](=O)[O-])cc1)c1cccs1 | inconclusive: 762%
83 | CCOC(=O)c1nc2c(ccc3ccccc32)cc1C | inconclusive: 113%
84 | NC(N)=Nc1nc(-c2ccccc2)c2cc(F)ccc2n1 | inconclusive: 108%
85 | Cc1ccccc1C(=O)c1cccn1CC(=O)NC(C)c1ccc2c(c1)OCCO2 (configuration not stated) | inconclusive: 71.6%
86 | CN(C)CCCN(C(=O)COc1ccccc1)c1nc2ccc(F)cc2s1 | inconclusive: 119%
87 | CCN(CC)c1nc(N)nc(N(c2ccccc2)c2ccccc2)n1 | active: 155% [activator]
88 | CS(=O)(=O)N1CCN(C(=O)c2cccnc2)CC1 | inactive: 96.7%
89 | CCOC(=O)c1cn2nc(Oc3ccc(NC(C)=O)cc3)ccc2n1 | inconclusive: 116%
90 | Cc1nn(C)c(C(=O)N2CCOCC2)c1Cl | inactive: 100%
91 | NC1CCN(c2c(F)cc3c(=O)c(C(=O)O)cn(C4CC4)c3c2Cl)C1 (configuration not stated) | inconclusive: -230%
92 | COc1ccc(OC)c(C(=O)NC(CC(N)=O)c2ccc(NCCN3CCOCC3)c([N+](=O)[O-])c2)c1 (configuration not stated) | inconclusive: 128%
